According to paper doi:10.1101/2021.12.06.471472:
No constants are given. Whether binding was seen depends on the method and setting. Binding seen in cells or lysates may run through a third protein. Some binding calls cover weakened binding; strength is not graded here. Tags and fused reporters may be left off the sequences shown.

T1: Arabidopsis thaliana REGULATOR OF G … 1 protein (AtRGS1), AtRGS1-nLUC (Arabidopsis thaliana) (UniProt Q8H1F2)
T1 sequence: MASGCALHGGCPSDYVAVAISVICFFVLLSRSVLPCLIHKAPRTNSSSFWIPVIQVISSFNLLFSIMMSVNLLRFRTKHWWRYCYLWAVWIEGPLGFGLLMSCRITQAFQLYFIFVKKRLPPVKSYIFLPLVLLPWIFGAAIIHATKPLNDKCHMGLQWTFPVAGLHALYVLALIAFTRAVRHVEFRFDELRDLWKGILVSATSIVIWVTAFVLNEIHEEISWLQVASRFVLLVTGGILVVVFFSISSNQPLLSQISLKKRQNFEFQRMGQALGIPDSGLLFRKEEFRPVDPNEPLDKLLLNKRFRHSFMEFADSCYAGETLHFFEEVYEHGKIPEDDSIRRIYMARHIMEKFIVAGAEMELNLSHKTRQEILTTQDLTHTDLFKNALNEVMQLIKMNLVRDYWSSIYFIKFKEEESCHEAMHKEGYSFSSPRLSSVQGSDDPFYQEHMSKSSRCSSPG

T2: AGB1/AGG1 dimer (AtAGB1-nLUC co-expressed with mCherry-AtAGG1) (Arabidopsis thaliana) (UniProt P49177+Q9FDX9)
T2 sequence 1: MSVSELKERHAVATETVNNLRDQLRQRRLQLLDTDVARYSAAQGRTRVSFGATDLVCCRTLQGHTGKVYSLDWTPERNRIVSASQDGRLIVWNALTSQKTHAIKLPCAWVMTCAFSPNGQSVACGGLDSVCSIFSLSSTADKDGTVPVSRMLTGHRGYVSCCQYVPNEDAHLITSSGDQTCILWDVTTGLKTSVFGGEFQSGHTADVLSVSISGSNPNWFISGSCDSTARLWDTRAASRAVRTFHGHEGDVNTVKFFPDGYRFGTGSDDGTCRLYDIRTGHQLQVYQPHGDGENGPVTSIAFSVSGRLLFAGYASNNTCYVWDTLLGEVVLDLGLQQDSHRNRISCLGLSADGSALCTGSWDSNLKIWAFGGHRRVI
T2 sequence 2: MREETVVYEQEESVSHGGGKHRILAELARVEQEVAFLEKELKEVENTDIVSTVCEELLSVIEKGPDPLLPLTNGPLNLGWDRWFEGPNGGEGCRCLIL


Assays:
[1] = target: T1, Arabidopsis thaliana REGULATOR OF G … 1 protein (AtRGS1), AtRGS1-nLUC (Arabidopsis thaliana); assay: split reporter
[2] = target: T2, AGB1/AGG1 dimer (AtAGB1-nLUC co-expressed with mCherry-AtAGG1) (Arabidopsis thaliana); assay: split reporter

Binder	binding [1]	binding [2]
ATBα, PROTEIN PHOSPHATASE 2A (PP2A) regulatory B subunit alpha isoform, AtATBα-nLUC (protein, UniProt Q38821 1-513) MNGGDEVVAASADPSLPLEWRFSQVFGERSAGEEVQEVDIISAIEFDNSGNHLATGDRGGRVVLFERTDTNNSSGTRRELEEADYPLRHPEFRYKTEFQSHDPEFDYLKSLEIEEKINKIRWCQTANGALFLLSTNDKTIKFWKVQDKKIKKICDMNSDPSRTVGNGTVASSSNSNITNSCLVNGGVSEVNNSLCNDFSLPAGGISSLRLPVVVTSHESSPVARCRRVYAHAHDYHINSISNNSDGETFISADDLRINLWNLEISNQSFNIVDVKPAKMEDLSEVITSAEFHPTHCNMLAYSSSKGSIRLIDLRQSALCDSHSKLFEEPEQAGPKSFFTEIIASVSDIKFAKEGRYLLSRDYMTLKLWDINMDAGPVATFQVHEYLKPKLCDLYENDSIFDKFECCISGNGLRAATGSYSNLFRVFGVAPGSTETATLEASRNPMRRHVPIPSRPSRALSSITRVVSRGSESPGVDGNTNALDYTTKLLHLAWHPNENSIACAAANSLYMYYA	binds	–
AtGPA1, canonical Gα subunit, cLUC-AtGPA1 (protein, UniProt P18064 1-383) MGLLCSRSRHHTEDTDENTQAAEIERRIEQEAKAEKHIRKLLLLGAGESGKSTIFKQIKLLFQTGFDEGELKSYVPVIHANVYQTIKLLHDGTKEFAQNETDSAKYMLSSESIAIGEKLSEIGGRLDYPRLTKDIAEGIETLWKDPAIQETCARGNELQVPDCTKYLMENLKRLSDINYIPTKEDVLYARVRTTGVVEIQFSPVGENKKSGEVYRLFDVGGQRNERRKWIHLFEGVTAVIFCAAISEYDQTLFEDEQKNRMMETKELFDWVLKQPCFEKTSFMLFLNKFDIFEKKVLDVPLNVCEWFRDYQPVSSGKQEIEHAYEFVKKKFEELYYQNTAPDRVDRVFKIYRTTALDQKLVKKTFKLVDETLRRRNLLEAGLL	–	binds
